# Source: the supplement of paper PMC4604168 (melanoma cell lines)
# The other results are listed elsewhere or left out. Single values are uncertain, as repeats are few or missing.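 Imaging used 1,536-well plates; nuclei positive for cleaved PARP by antibody were divided by total DNA-stained nuclei to yield the apoptosis fraction. Doses for screening kept most cells viable, and cell lines differ markedly in resting and induced cleaved-PARP levels.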
# Assays:
# Assay in all cases: cleaved PARP positive nuclei fraction relative to DMSO control; melanoma cells; higher = more apoptosis
# Conditions in all cases: library dose: low library concentration; 72 h
# 501Mel = system: 501Mel
# A101D = system: A101D
# A2058 = system: A2058
# A375 = system: A375
# C32 = system: C32
# CBRC008 = system: CBRC008 (line from a melanoma biopsy)
# CBRC014 = system: CBRC014 (line from a melanoma biopsy)
# CBRC016 = system: CBRC016 (line from a melanoma biopsy)
# CBRC017 = system: CBRC017 (line from a melanoma biopsy)
# CBRC034 = system: CBRC034 (line from a melanoma biopsy)
# COLO792 = system: COLO792
# COLO800 = system: COLO800
# COLO829 = system: COLO829
# G361 = system: G361
# IPC-298 = system: IPC-298
# IST-MEL1 = system: IST-MEL1
# LB2518-MEL = system: LB2518-MEL
# LOXIMVI = system: LOXIMVI
# MEL-HO = system: MEL-HO
SMILES,cleaved PARP positive nuclei fraction (501Mel),cleaved PARP positive nuclei fraction (A101D),cleaved PARP positive nuclei fraction (A2058),cleaved PARP positive nuclei fraction (A375),cleaved PARP positive nuclei fraction (C32),cleaved PARP positive nuclei fraction (CBRC008),cleaved PARP positive nuclei fraction (CBRC014),cleaved PARP positive nuclei fraction (CBRC016),cleaved PARP positive nuclei fraction (CBRC017),cleaved PARP positive nuclei fraction (CBRC034),cleaved PARP positive nuclei fraction (COLO792),cleaved PARP positive nuclei fraction (COLO800),cleaved PARP positive nuclei fraction (COLO829),cleaved PARP positive nuclei fraction (G361),cleaved PARP positive nuclei fraction (IPC-298),cleaved PARP positive nuclei fraction (IST-MEL1),cleaved PARP positive nuclei fraction (LB2518-MEL),cleaved PARP positive nuclei fraction (LOXIMVI),cleaved PARP positive nuclei fraction (MEL-HO)
"COc1cc([C@@H]2c3cc4c(cc3[C@@H](O[C@@H]3O[C@@H]5CO[C@@H](C)O[C@H]5[C@H](O)[C@H]3O)[C@H]3COC(=O)[C@H]23)OCO4)cc(OC)c1O [etoposide] + CC(=O)O[C@@]12CO[C@@H]1C[C@H](O)[C@@]1(C)C(=O)[C@H](O)C3=C(C)[C@@H](OC(=O)[C@H](O)[C@@H](NC(=O)OC(C)(C)C)c4ccccc4)C[C@@](O)([C@@H](OC(=O)c4ccccc4)[C@H]21)C3(C)C [Docetaxel] (first compound 0.02 µM, partner dose 0.0001 µM)",130%,247%,3020%,955%,180%,198%,703%,280%,168%,69.1%,343%,139%,288%,571%,354%,177%,62.2%,240%,142%
"Cc1cn(-c2cc(NC(=O)c3ccc(C)c(Nc4nccc(-c5cccnc5)n4)c3)cc(C(F)(F)F)c2)cn1 [nilotinib] + C[C@]1(O)C[C@@H](c2nc(-c3ccc4ccc(-c5ccccc5)nc4c3)c3c(N)nccn32)C1 [OSI906] (first compound 0.2 µM, partner dose 0.4 µM)",102%,343%,116%,567%,177%,344%,92.2%,80.9%,215%,68.1%,41.2%,103%,18.2%,68.5%,49.5%,48.3%,104%,86%,80.4%
"CC[C@]1(O)C[C@H]2CN(CCc3c([nH]c4ccccc34)[C@@](C(=O)OC)(c3cc4c(cc3OC)N(C=O)[C@H]3[C@@](O)(C(=O)OC)[C@H](OC(C)=O)[C@]5(CC)C=CCN6CC[C@]43[C@@H]65)C2)C1 [vincristine] + O=C(Nc1cc(C(F)(F)F)cc(C(F)(F)F)c1)c1cc(Cl)ccc1O [IMD0354] (first compound 0.0001 µM, partner dose 0.016 µM)",48%,158%,1430%,165%,91.5%,194%,105%,55.8%,146%,43.9%,96.7%,71.4%,231%,174%,125%,205%,67.9%,168%,112%
"CCCCCCCCCCCCCCCCCCOP(=O)([O-])OC1CC[N+](C)(C)CC1 [Perifosine] + Nc1nc(F)nc2c1ncn2[C@@H]1O[C@H](CO)[C@@H](O)[C@@H]1O [fludarabine] (first compound 0.4 µM, partner dose 0.2 µM)",30800%,30.6%,114%,4000%,45.9%,120%,97.4%,44.1%,100%,32.9%,135%,101%,101%,129%,58.3%,89.5%,53.6%,89.3%,156%
"CC[C@]1(O)C[C@H]2CN(CCc3c([nH]c4ccccc34)[C@@](C(=O)OC)(c3cc4c(cc3OC)N(C=O)[C@H]3[C@@](O)(C(=O)OC)[C@H](OC(C)=O)[C@]5(CC)C=CCN6CC[C@]43[C@@H]65)C2)C1 [vincristine] + CS(=O)(=O)CCNCc1ccc(-c2ccc3ncnc(Nc4ccc(OCc5cccc(F)c5)c(Cl)c4)c3c2)o1 [lapatinib] (first compound 0.0001 µM, partner dose 0.8 µM)",199%,224%,2510%,1570%,230%,162%,160%,273%,138%,87.3%,227%,110%,286%,107%,148%,218%,249%,79.9%,169%
"O=c1[nH]nc(Sc2ncc([N+](=O)[O-])s2)n1-c1ccc2c(c1)OCCO2 + CN(c1ncccc1CNc1nc(Nc2ccc3c(c2)CC(=O)N3)ncc1C(F)(F)F)S(C)(=O)=O [PF562271] (first compound 0.2 µM, partner dose 0.08 µM)",72%,54.4%,197%,75.6%,92.5%,192%,125%,361%,87.3%,143%,126%,60.2%,86.4%,64.9%,99.3%,116%,110%,211%,59.6%
"Cc1cn(-c2cc(NC(=O)c3ccc(C)c(Nc4nccc(-c5cccnc5)n4)c3)cc(C(F)(F)F)c2)cn1 [nilotinib] + Clc1ccc(Nc2nnc(Cc3ccncc3)c3ccccc23)cc1 [vatalanib] (first compound 0.2 µM, partner dose 2 µM)",54.7%,157%,77.3%,159%,77.7%,39.7%,86.6%,115%,108%,117%,69.5%,33.3%,55.9%,87.4%,42.1%,60.3%,116%,119%,41.8%
"O=C(Nc1cc(C(F)(F)F)cc(C(F)(F)F)c1)c1cc(Cl)ccc1O + C[C@@H](N)c1ccc(C(=O)Nc2ccnc3[nH]ccc23)cc1 [RKI983] (first compound 0.016 µM, partner dose 0.4 µM)",83.9%,232%,128%,339%,103%,93.2%,216%,114%,82.1%,88.5%,91.2%,137%,72%,96.1%,77.8%,277%,48.3%,121%,169%
"O=c1[nH]nc(Sc2ncc([N+](=O)[O-])s2)n1-c1ccc2c(c1)OCCO2 + C[C@@H](Oc1cc(-c2cnn(C3CCNCC3)c2)cnc1N)c1c(Cl)ccc(F)c1Cl [Crizotinib] (first compound 0.2 µM, partner dose 0.2 µM)",103%,139%,85.9%,87.6%,244%,100%,81.4%,143%,101%,142%,53.4%,83.4%,102%,139%,87.7%,33%,101%,96.5%,200%
"CC[C@]1(O)C[C@H]2CN(CCc3c([nH]c4ccccc34)[C@@](C(=O)OC)(c3cc4c(cc3OC)N(C=O)[C@H]3[C@@](O)(C(=O)OC)[C@H](OC(C)=O)[C@]5(CC)C=CCN6CC[C@]43[C@@H]65)C2)C1 [vincristine] + Cn1cnc2c(F)c(Nc3ccc(Br)cc3Cl)c(C(=O)NOCCO)cc21 [selumetinib] (first compound 0.0001 µM, partner dose 0.015 µM)",414%,125%,270%,131%,99.8%,209%,91%,67.6%,176%,157%,86.7%,119%,101%,70.4%,158%,133%,259%,113%,107%
"Cc1cc(Nc2cc(N3CCN(C)CC3)nc(Sc3ccc(NC(=O)C4CC4)cc3)n2)n[nH]1 [Tozasertib] + O=C(O)c1ccc2c(c1)nc(Nc1cccc(Cl)c1)c1ccncc12 [CX4945] (first compound 0.006 µM, partner dose 0.4 µM)",114%,42.6%,127%,54.2%,156%,40.4%,100%,1110%,131%,115%,238%,66.6%,86.4%,84.6%,92.9%,268%,211%,113%,133%
"COc1cc([C@@H]2c3cc4c(cc3[C@@H](O[C@@H]3O[C@@H]5CO[C@@H](C)O[C@H]5[C@H](O)[C@H]3O)[C@H]3COC(=O)[C@H]23)OCO4)cc(OC)c1O [etoposide] + COc1ccc(C2=N[C@@H](c3ccc(Cl)cc3)[C@@H](c3ccc(Cl)cc3)N2C(=O)N2CCNC(=O)C2)c(OC(C)C)c1 [Nutlin-3] (first compound 0.02 µM, partner dose 0.1 µM)",113%,195%,52.8%,50%,86%,44%,98.5%,79.2%,125%,128%,92.6%,187%,181%,84.6%,88.7%,79.6%,94.8%,158%,125%
"CC[C@]1(O)C[C@H]2CN(CCc3c([nH]c4ccccc34)[C@@](C(=O)OC)(c3cc4c(cc3OC)N(C=O)[C@H]3[C@@](O)(C(=O)OC)[C@H](OC(C)=O)[C@]5(CC)C=CCN6CC[C@]43[C@@H]65)C2)C1 [vincristine] + COCC[n+]1c2c(n(Cc3cnccn3)c1C)C(=O)c1ccccc1C2=O [YM155] (first compound 0.0001 µM, partner dose 0.0004 µM)",80.7%,91.1%,288%,164%,81.2%,195%,94%,135%,90.2%,88.8%,124%,48.6%,163%,135%,136%,69.5%,220%,64.8%,129%
"Cc1ccc(Nc2nccc(N(C)c3ccc4c(C)n(C)nc4c3)n2)cc1S(N)(=O)=O [Pazopanib] + C[C@@H](Oc1cc(-c2cnn(C3CCNCC3)c2)cnc1N)c1c(Cl)ccc(F)c1Cl [Crizotinib] (first compound 0.4 µM, partner dose 0.2 µM)",129%,53.7%,51.7%,181%,74.2%,71.6%,114%,127%,84.6%,78.8%,126%,108%,152%,221%,149%,66.1%,90.7%,95.8%,121%
"O=C(Nc1cc(C(F)(F)F)cc(C(F)(F)F)c1)c1cc(Cl)ccc1O + Cn1c(=O)n(-c2ccc(C(C)(C)C#N)cc2)c2c3cc(-c4cnc5ccccc5c4)ccc3ncc21 [NVP-BEZ235] (first compound 0.016 µM, partner dose 0.004 µM)",62.2%,248%,95.4%,119%,75%,119%,98.4%,96.9%,133%,72.1%,149%,144%,122%,89.6%,169%,31.1%,98.1%,152%,57.6%

# A second format for part of the listing above.
SMILES | cleaved PARP positive nuclei fraction (501Mel) | cleaved PARP positive nuclei fraction (A101D) | cleaved PARP positive nuclei fraction (A2058) | cleaved PARP positive nuclei fraction (A375) | cleaved PARP positive nuclei fraction (C32) | cleaved PARP positive nuclei fraction (CBRC008) | cleaved PARP positive nuclei fraction (CBRC014) | cleaved PARP positive nuclei fraction (CBRC016) | cleaved PARP positive nuclei fraction (CBRC017) | cleaved PARP positive nuclei fraction (CBRC034) | cleaved PARP positive nuclei fraction (COLO792) | cleaved PARP positive nuclei fraction (COLO800) | cleaved PARP positive nuclei fraction (COLO829) | cleaved PARP positive nuclei fraction (G361) | cleaved PARP positive nuclei fraction (IPC-298) | cleaved PARP positive nuclei fraction (IST-MEL1) | cleaved PARP positive nuclei fraction (LB2518-MEL) | cleaved PARP positive nuclei fraction (LOXIMVI) | cleaved PARP positive nuclei fraction (MEL-HO)
CC[C@]1(O)C[C@H]2CN(CCc3c([nH]c4ccccc34)[C@@](C(=O)OC)(c3cc4c(cc3OC)N(C=O)[C@H]3[C@@](O)(C(=O)OC)[C@H](OC(C)=O)[C@]5(CC)C=CCN6CC[C@]43[C@@H]65)C2)C1 [vincristine] + Cn1cnc2c(F)c(Nc3ccc(Br)cc3Cl)c(C(=O)NOCCO)cc21 [selumetinib] (first compound 0.0001 µM, partner dose 0.015 µM) | 414% | 125% | 270% | 131% | 99.8% | 209% | 91% | 67.6% | 176% | 157% | 86.7% | 119% | 101% | 70.4% | 158% | 133% | 259% | 113% | 107%
Cc1cc(Nc2cc(N3CCN(C)CC3)nc(Sc3ccc(NC(=O)C4CC4)cc3)n2)n[nH]1 [Tozasertib] + O=C(O)c1ccc2c(c1)nc(Nc1cccc(Cl)c1)c1ccncc12 [CX4945] (first compound 0.006 µM, partner dose 0.4 µM) | 114% | 42.6% | 127% | 54.2% | 156% | 40.4% | 100% | 1110% | 131% | 115% | 238% | 66.6% | 86.4% | 84.6% | 92.9% | 268% | 211% | 113% | 133%
